Data reported in paper PMC4005652.
Results are given in words; binding and its absence hold for the method and conditions named. In cells and extracts the contact can be indirect. Binding calls can cover weak binding; strength is not graded here.

Target: Zm-mTERF4 (maize (endogenous in maize chloroplast stroma))
Experiment: co-IP; maize chloroplast stromal extract immunoprecipitated with Zm-mTERF4 antibody; pellets and supernatants probed on immunoblots; immunoprecipitation with OE16 antibody as negative control

Binder | binding
PPR10 (protein, UniProt B8Y6I0 96-786) ASRRDELLRADITSLLKALELSGHWEWALALLRWAGKEGAADASALEMVVRALGREGQHDAVCALLDETPLPPGSRLDVRAYTTVLHALSRAGRYERALELFAELRRQGVAPTLVTYNVVLDVYGRMGRSWPRIVALLDEMRAAGVEPDGFTASTVIAACCRDGLVDEAVAFFEDLKARGHAPCVVTYNALLQVFGKAGNYTEALRVLGEMEQNGCQPDAVTYNELAGTYARAGFFEEAARCLDTMASKGLLPNAFTYNTVMTAYGNVGKVDEALALFDQMKKTGFVPNVNTYNLVLGMLGKKSRFTVMLEMLGEMSRSGCTPNRVTWNTMLAVCGKRGMEDYVTRVLEGMRSCGVELSRDTYNTLIAAYGRCGSRTNAFKMYNEMTSAGFTPCITTYNALLNVLSRQGDWSTAQSIVSKMRTKGFKPNEQSYSLLLQCYAKGGNVAGIAAIENEVYGSGAVFPSWVILRTLVIANFKCRRLDGMETAFQEVKARGYNPDLVIFNSMLSIYAKNGMYSKATEVFDSIKRSGLSPDLITYNSLMDMYAKCSESWEAEKILNQLKCSQTMKPDVVSYNTVINGFCKQGLVKEAQRVLSEMVADGMAPCAVTYHTLVGGYSSLEMFSEAREVIGYMVQHGLKPMELTYRRVVESYCRAKRFEEARGFLSEVSETDLDFDKKALEAYIEDAQFGR | no binding
CAF2 (protein, UniProt Q84N48 59-611) QEEPTDSGPTRTVTTNPAFRAAHLRTAYRKPVPPAAAAGEGEALLAADPTDAASGRAVVVGPSGLSFRLPGAPFDFQFSYSEAPRAPPLAIREPAFLPFAPPTMPRPWTGKAPLLTKEEKARRRGVRLHTPLGQETPQTVSAHGIMMEVRERRKMDLARVSPGDGRSREEVLGEPLTPSEVRALVKPHISHNRQLNIGRDGLTHNMLEMIHCHWRRQEICKVRCRGVPTVDMKNLCYHLEEKSGGKVIHRVGGVVFLYRGRHYDPKTRPRYPLMLWKPATPVYPKLIKEAPDGFTKEEADEMRRKGRDLLPICKLAKNGIYITLVKDVRDAFEGSDLVKIDCEGLNPSDYKKIGAKLRDLVPCVLLSFDDEQILMHRGKEWKSRYSKPLTLIPKVPKNNLAMTSVMNSSDEVSDANTQVAIREVLRPKMFKLWKSAVDSSLALLLDDAEANNLTPDSLLTLVEEFSVTSQAVEHSFPALLVTNGDASTDSLSAEYMNDEPETSVAGNEEGQLEQSPDLRDDEHFDVDMFERLESSVPLGSLPIDSMIERLNSE | binds
CRS1 (protein, UniProt Q9FYT6 41-715) AEATPSKFRIDSPKPAPARKNTKTAAKPLTAGVPGGRTHRAVLGIIRRVRSLELSDAPSPNSVHTSNSGAAAAAFHLTIELSPPREPGQYVVEKEKSRAVPWAAARDEGLKVALRREKKPREPTRAETELETHELRRLRRLARGIGRWARAKKAGVTDEVVKEVRREWASGEELAAVRIVEPLRRSMDRAREILEIKTGGLVVWTKGDMHFVYRGSKYQQNAKHSHTFLTNVHKDDAFQENDQSICGQKDEEPVKGTLYEREVNRLLDTLGPRFVDWWWDTPLPVDADLLPEFVPGSKTPYRLCPPGVRPTLADEELTYLRKLARLLPTHFALGRNTRLQGLAAAILKLWEKSLIAKIAVKIGIQNTNNEQMAWNLKHLTGGTVILRNKDFIILYRGKDFLPGGVAQTVIQREAQVHDEQVKEEEARLKAVDSLQMVGELSEESSLGTFREYQGFHAKFVHENTENSNTMIELEAEKYRLEKELKDHEWKLSVLNKKIERSNQALAKLHSSWSPSEQSADREHLTEEEKIMFRRIGRKMDGLVLLGRRGIFDGVIEEIHQHWKHKEVVKVITKQNQTRQIMYAASLLEVETGGILIAVEKLTTSHAIILYRGKNYRRPAKSSFSNLLTKREALRRSIEVQRRGSMKYFVRERQKSILELKRKLRYVTRQIRYRTP | binds
CFM3 (protein, UniProt A7XN92 83-842) ILSRLRRAGYSGEDPRAAAPPHPPRGSVEDVFRADDGVLPNARGGFDADDEERALGDARFPWERPMPPPEAAPRSARSPTWMAELTLPAAELRRLRHAAIRIKSRTKVGGAGVTREIVEKIKEKWKTEEVVRVKVSGTPALNMRLFHEILERKTGGLVIWRSGTSVSLYRGVDYDEPEPTKKSKKNSQSLAMDFPIKGSSNPSLLPTETANSVRDSNVALVSNAAKEELVVQAPEIKYEDEIDKLLDELGPRYTDWPGSDPLPVDADLLPANMPGYKPPFRVLPYGVRPSLSRRDTTNLRRLARGLPPHFALGRSRQLQGLANAMVKLWEKSSIAKIALKRGVQLTTSERMAEDIKKLTGGVMLSRNNEFIVFYRGKDFLSSELAEVLLERERLAKSLQDEEEARRKAASYFSSAETYAQPTVAGTLGETLEANSKYGTKHDENHADKMARTIEAARHADLVRKLEWKLSLAQKKMEKAERVLGKVETALRPTEDSRPPETITDEERFMFRKLGLRMKAFLLLGRRGVFDGTIENMHLHWKYRELVKILVKAKSFADVKRIALSLEAESGGILVSVDKVSKGYAIVVFRGKNYRRPSSLRPRNLLSKRKALARSIELQRHQALSRHFAKLNRKVERLKAELVQMEDVKEQGDEELYAKLDAAYSSDDEDMEDEDDEAYLKRFDNEVAGATADDDGSDDYTSAADEADYPDSDDEAGDCSEDEGEDDEDEAAAGVSDAGFHGEVVGFSSDTDRRNHDVNEY | binds

Results, then the binder that gave them:

binding | Binder
binds | RNC1 (protein, UniProt A6YSL1 29-525) VLAVAADQTPPPAPPSEPANSPSRLLRELAQRKKAVSPKKKHPPRRFILKPPLDDERLTRRFLSSPQLSLKALPLLSSCLPSAPLSTADRTWMDEYLLEAKQALGYPLAPSETLGEGDDCPARHFDVLFYLAFQHLDPSSERTRMRHVRNGHSRLWFLGQYVLELAFCEFFLQRYPRESPGPMRERVFALIGKKVLPRWLKAASLHNLVFPYDDLDKMIRKDREPPSKAVFWAIFGAIYLCFGMPEVYRVLFEAFGMDPDDESCQPKLRRQLEDVDYVSVEFEKRQLTWQDVAAYRPPPDALFAHPRLFRACVPPGMHRFRGNIWDFDSRPKVMTTLGYPLPMNDRIPEITEARNIELGLGLQLCFLHPSKHKFEHPRFCYERLEYVGQKIQDLVMAERLLMKHLDAPGRWLAEKHRRTLMNKYCGRYLRDKHLQHYIIYGETVQDRFEHNRRLRNPSTTSVQQALHGLAYCVYGKPDVRRLMFEVFDFEQVQPKAV
binds | WTF1 (protein, UniProt B6TTV8 51-498) AQAAVKRRKEAPFDTVIQRDKKLKLVLKLRNILVAQPDRVMSLRELGRFRRDLGLTRKRRLIALLRRFPGVFDVVEEGVYSLRFRLTPAAERLYLDELRLRNESEGLAVAKLRKLLMMSQEKRILIEKVAHLKHDLGLPPEFRDTVCLRYPQYFRVVRMDRGPALELTHWDPELAVSAAELAEEESRAREAEERNLIIDRPLKFNRVRLPKGLKLTRGEARRIARFKEMPYISPYADFSHLRSGSDEKEKHACGVVHEILSLTVEKRTLVDHLTHFREEFRFSQSLRGMIIRHPDMFYVSFKGDRDSVFLREAYKDSQLVEKNQLVLLKEKMRALVAVPRFPRRAAVGTGEEAEGMNGSLQSRDQVSDEEYDDEDEGLSDMEDLISELSGGKSDADYEWGDGWFGENDDSPPDFGDDEVKVAMKIADGSANGSAPVPVFPDGRPRERW
